Data taken from US20090036380A1, “Composition And Method For Brain Tumor Therapy” (Yeda Research and Development Co., Ltd., priority 2006, published 2009).
No constants are given. Whether binding was seen depends on the method and setting. Some results given as binding are weak or reduced against the parent protein; the word gives no strength.

The chains behind the UniProt entries cited, without tags or fusion partners. Residues count along the entry.
UniProt P18760, residues 2-166: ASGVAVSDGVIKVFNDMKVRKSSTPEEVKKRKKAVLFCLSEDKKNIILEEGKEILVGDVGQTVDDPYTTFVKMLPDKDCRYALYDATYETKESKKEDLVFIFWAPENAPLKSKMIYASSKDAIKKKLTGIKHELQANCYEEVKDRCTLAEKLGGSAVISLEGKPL
UniProt Q99020: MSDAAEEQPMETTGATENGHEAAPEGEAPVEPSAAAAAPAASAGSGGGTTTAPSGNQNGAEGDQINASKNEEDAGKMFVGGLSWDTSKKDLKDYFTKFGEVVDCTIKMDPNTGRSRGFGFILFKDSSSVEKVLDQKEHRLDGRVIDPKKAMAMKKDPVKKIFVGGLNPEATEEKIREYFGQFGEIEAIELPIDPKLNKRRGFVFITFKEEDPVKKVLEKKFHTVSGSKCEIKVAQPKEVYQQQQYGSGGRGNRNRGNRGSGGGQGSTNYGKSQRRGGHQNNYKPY
UniProt Q08624: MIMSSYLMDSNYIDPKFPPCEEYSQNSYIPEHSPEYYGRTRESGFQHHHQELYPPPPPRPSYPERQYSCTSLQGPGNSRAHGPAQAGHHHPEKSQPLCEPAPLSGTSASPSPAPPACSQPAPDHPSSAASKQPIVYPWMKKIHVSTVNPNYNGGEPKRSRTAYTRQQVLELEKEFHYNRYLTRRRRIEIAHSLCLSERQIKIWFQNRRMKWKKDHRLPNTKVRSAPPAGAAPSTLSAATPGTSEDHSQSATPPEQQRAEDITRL
UniProt Q9QXL1: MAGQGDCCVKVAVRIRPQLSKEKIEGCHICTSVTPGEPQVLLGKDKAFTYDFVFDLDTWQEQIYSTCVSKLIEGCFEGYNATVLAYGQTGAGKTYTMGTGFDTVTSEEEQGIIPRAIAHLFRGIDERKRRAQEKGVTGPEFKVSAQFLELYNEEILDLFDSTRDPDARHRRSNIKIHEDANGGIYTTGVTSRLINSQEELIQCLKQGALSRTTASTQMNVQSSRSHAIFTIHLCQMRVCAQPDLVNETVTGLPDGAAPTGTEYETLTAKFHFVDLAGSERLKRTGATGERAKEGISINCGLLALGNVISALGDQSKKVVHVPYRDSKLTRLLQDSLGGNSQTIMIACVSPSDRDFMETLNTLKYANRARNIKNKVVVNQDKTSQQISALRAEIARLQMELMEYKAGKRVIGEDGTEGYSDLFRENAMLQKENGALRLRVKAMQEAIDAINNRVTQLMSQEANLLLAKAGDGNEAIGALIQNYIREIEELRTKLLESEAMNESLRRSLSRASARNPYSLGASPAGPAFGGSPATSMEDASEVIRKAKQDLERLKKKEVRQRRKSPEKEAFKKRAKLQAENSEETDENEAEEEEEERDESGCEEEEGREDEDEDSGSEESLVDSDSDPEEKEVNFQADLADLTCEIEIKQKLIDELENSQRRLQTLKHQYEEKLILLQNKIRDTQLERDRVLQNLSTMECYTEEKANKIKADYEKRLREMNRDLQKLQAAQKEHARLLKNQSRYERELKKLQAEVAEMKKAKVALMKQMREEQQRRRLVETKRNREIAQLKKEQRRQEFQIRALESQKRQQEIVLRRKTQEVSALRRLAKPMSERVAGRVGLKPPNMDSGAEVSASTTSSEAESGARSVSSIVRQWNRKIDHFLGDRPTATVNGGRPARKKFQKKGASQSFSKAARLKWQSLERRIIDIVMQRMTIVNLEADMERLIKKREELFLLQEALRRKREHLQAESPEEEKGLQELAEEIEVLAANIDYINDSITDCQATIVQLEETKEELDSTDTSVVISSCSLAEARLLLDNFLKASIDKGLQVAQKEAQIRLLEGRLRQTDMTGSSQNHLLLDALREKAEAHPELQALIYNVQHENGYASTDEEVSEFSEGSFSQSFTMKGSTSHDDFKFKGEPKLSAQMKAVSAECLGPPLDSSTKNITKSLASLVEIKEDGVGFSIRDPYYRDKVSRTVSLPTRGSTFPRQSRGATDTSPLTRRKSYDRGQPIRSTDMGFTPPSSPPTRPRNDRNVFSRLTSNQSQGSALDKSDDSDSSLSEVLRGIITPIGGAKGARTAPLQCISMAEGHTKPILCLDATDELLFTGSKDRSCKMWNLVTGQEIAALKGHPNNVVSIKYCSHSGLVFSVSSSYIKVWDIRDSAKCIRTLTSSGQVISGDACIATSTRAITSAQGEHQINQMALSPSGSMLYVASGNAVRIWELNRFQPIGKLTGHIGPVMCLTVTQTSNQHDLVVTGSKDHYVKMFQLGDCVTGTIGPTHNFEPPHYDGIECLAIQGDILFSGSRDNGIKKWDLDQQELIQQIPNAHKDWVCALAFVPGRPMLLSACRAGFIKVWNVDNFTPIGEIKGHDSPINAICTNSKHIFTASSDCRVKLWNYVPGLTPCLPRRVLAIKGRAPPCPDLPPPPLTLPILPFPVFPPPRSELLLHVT
UniProt Q91ZZ3: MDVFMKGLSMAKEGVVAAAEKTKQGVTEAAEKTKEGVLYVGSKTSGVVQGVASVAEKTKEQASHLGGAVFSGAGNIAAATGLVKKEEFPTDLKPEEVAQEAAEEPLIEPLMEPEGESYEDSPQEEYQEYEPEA
UniProt Q9QYJ0, residues 1-409: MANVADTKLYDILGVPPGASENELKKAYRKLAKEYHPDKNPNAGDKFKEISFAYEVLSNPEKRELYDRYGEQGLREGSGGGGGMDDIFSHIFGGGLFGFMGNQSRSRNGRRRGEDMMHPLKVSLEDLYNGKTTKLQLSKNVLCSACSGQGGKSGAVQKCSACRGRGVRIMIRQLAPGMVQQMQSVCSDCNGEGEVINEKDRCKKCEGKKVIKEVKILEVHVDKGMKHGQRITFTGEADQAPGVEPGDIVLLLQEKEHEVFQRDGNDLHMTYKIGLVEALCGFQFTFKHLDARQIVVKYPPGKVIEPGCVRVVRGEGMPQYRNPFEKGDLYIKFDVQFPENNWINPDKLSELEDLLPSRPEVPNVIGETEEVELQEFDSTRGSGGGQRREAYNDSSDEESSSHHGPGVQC
UniProt P03903, residues 9-98: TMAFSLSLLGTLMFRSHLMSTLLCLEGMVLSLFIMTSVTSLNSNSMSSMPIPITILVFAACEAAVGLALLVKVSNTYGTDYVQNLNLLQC
UniProt Q61142: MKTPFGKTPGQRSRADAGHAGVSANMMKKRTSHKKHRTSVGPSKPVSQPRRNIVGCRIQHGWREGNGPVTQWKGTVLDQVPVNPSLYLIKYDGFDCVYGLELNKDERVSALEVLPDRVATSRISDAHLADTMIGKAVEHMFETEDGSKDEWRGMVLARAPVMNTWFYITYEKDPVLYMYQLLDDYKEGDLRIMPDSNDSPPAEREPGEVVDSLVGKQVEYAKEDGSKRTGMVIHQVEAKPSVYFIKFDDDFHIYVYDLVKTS
UniProt P10126, residues 2-462: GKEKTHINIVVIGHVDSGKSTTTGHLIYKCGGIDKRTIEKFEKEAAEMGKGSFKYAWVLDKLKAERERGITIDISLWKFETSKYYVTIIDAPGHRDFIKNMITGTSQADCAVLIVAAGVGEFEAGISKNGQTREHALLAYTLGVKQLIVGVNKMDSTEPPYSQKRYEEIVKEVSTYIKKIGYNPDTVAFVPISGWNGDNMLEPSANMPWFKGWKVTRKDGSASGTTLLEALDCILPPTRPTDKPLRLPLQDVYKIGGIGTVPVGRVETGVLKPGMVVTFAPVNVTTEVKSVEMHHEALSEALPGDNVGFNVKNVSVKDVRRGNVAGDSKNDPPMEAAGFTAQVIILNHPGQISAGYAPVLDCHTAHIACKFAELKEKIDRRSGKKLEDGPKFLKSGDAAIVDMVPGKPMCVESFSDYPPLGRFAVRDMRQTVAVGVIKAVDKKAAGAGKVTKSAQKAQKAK

Assays:
[1] = molecular target: T1, Karet PTB domain (RRS bait) (mouse) (UniProt Q8K2Y9); test: RRS screen in yeast, Karet PTB domain against an embryonic mouse brain library
T1 sequence: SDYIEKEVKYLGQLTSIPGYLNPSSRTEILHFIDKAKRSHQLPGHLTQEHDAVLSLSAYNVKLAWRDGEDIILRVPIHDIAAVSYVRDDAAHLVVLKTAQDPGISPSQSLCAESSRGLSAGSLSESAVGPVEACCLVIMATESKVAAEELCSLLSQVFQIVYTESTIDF

[2] = molecular target: full length Karet protein (RRS bait) (mouse) (UniProt Q8K2Y9); test: RRS screen in yeast, whole Karet protein against an embryonic mouse brain library

| Substance | binding [1] | binding [2] |
| --- | --- | --- |
| Cofilin 1, non-muscle (Cfl1), mRNA (from UniProt P18760 2-166) | binds | – |
| Heterogeneous nuclear ribonucleoprotein A/B (from UniProt Q99020 1-285) | binds | – |
| Homeo box C4 (Hoxc4), mRNA (from UniProt Q08624 1-264) | binds | – |
| Kinesin family member 21B (Kif21b), mRNA (from UniProt Q9QXL1 1-1668) | – | binds |
| SNCB - beta synuclein (from UniProt Q91ZZ3 1-133) | binds | – |

Next, values leading:

| binding [1] | binding [2] | Substance |
| --- | --- | --- |
| binds | – | Cytochrome c oxidase Subunit I (COI) (from UniProt P00397 1-514) |
| binds | – | DnaJ (Hsp40) homolog, subfamily A, member 2 (Dnaja2), mRNA (from UniProt Q9QYJ0 1-409) |
| – | binds | NADH dehydrogenase subunit 4L (from UniProt P03903 9-98) |
| binds | – | Spindlin (from UniProt Q61142 1-262) |
| binds | – | Translation elongation factor 1 alpha (from UniProt P10126 2-462) |
